{
  "source": "PubChem BioAssay AID445",
  "about": "(National Center for Advancing Translational Sciences (NCATS), 2006)",
  "note": "The other results are listed elsewhere or left out. Shown are side measurements of this screen, not its main read-out; they come without a call. Compounds called inactive in the main read-out are mostly missing here. The note in brackets gives the kind of curve behind each potency; many fits are weak.",
  "data": [
    {"assay": "IkB Signaling", "conditions": "ABC-DLBCL IkBa-CBG/CBR dual luciferase ratio (green luciferase fused to IkBa over red control in OCI-Ly3 lymphoma cells), 4 h; measured here: control luc red channel unless noted", "how_it_was_run": "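In this assay, an IκBα–CBG68 fusion accumulates when IKK-driven degradation is blocked; native CBR normalizes for cell number. OCI-Ly3 cells were treated 4 h with compound and doxycycline, then green and red light read after Chroma-Glo addition.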", "values": [
      {"smiles": "CN(Cc1ccccc1)C(=O)CSc1nc2ccccc2c(=O)n1Cc1ccco1", "AC50": "15.8 µM [falling, partial curve]"},
      {"smiles": "CN(C)c1ccc(NC(=S)c2ccccn2)cc1", "AC50": "3.98 µM [falling, full curve]"},
      {"smiles": "COc1ccc(-c2noc(CNC(=O)c3ccc(OC)cc3OC)n2)cc1", "AC50": "1.58 µM [falling, partial curve]"},
      {"smiles": "CCC1=Nc2cc(C(=O)N3CCC(C)CC3)ccc2Sc2ccc(C)cc21", "AC50": "31.6 µM [falling, partial curve]"},
      {"smiles": "CCOC(=O)c1c(NC(=O)COc2ccc(OC)cc2)sc(C(=O)N(CC)CC)c1C", "AC50": "39.8 µM [falling, single point]"},
      {"smiles": "Cn1c(=O)c(C(=S)NC(=O)C2CC2)c(N)n(Cc2ccccc2)c1=O", "AC50": "39.8 µM [rising, single point] [measured here: IkB-luc green channel]"},
      {"smiles": "N#C/C(=C\\c1ccccc1)c1nc(-c2cc3c(ccc4ccccc43)oc2=O)cs1", "AC50": "0.794 µM [rising, full curve, poor fit]"},
      {"smiles": "O=C(COC(=O)c1cc(-c2cccs2)nc2ccccc12)NCc1ccco1", "AC50": "25.1 µM [falling, partial curve]"},
      {"smiles": "CCSc1nnc(-c2cccc(S(=O)(=O)N(CC)CC)c2)n1Cc1ccccc1", "AC50": "25.1 µM [falling, partial curve]"},
      {"smiles": "COc1ccccc1CSc1nc2n(n1)C(c1ccccc1)C(C(=O)Nc1ccc(C)cc1)=C(C)N2", "note": "(configuration not stated)", "AC50": "25.1 µM [falling, single point]"},
      {"smiles": "CCC(Sc1nc2n[nH]c(C)c2c(=N)n1-c1ccc(Br)cc1)C(=O)N(CC)CC", "note": "(configuration not stated)", "AC50": "39.8 µM [falling, single point]"},
      {"smiles": "COc1ccccc1C(=O)n1nc(C)cc1C", "AC50": "39.8 µM [rising, single point]"},
      {"smiles": "CCOC(=O)c1c(S(=O)(=O)N2CCN(c3cc(Cl)ccc3C)CC2)c(C)n(C)c1C", "AC50": "39.8 µM [falling, single point]"},
      {"smiles": "CCC(=O)n1nc(-c2ccco2)nc1SCc1ccccc1", "AC50": "0.316 µM [rising, full curve, poor fit]"},
      {"smiles": "O=C(c1cccc(C(=O)N2CCN(Cc3ccccc3)CC2)c1)N1CCN(Cc2ccccc2)CC1", "AC50": "15.8 µM [falling, partial curve]"},
      {"smiles": "O=C(Nc1nccs1)c1cc(S(=O)(=O)N2CCCCC2)ccc1Cl", "AC50": "10 µM [falling, partial curve]"},
      {"smiles": "Cc1cccc(CCNC(=O)CCc2c(C)nc3c(-c4ccc(F)cc4)c(C)nn3c2C)c1", "AC50": "7.94 µM [falling, full curve, poor fit]"},
      {"smiles": "Cc1nc(-c2ccc(Cl)cc2)sc1CCNC(=O)C(=O)Nc1ccccc1C#N", "AC50": "31.6 µM [rising, single point]"},
      {"smiles": "COc1ccc(NC(=O)Cn2c(SCc3c(F)cccc3Cl)nc3ccncc32)cc1OC", "AC50": "10 µM [falling, partial curve]"},
      {"smiles": "CCCCN(C(=O)Nc1ccc(OCC)cc1)C1CCN(C(C)=O)CC1", "AC50": "0.0251 µM [rising, full curve, poor fit]"},
      {"smiles": "CCCN(CCC)C(=O)CSc1nc2ccccc2c(=O)n1C1CCCC1", "AC50": "25.1 µM [falling, partial curve]"},
      {"smiles": "CCCOc1ccc(C(=O)Nc2cccc(NC(=O)c3ccc(Cl)cc3Cl)c2)cc1", "AC50": "1.26 µM [falling, partial curve]"},
      {"smiles": "O=C(O)c1ccc(CSc2nc3cccnc3n2Cc2cccc(F)c2)cc1", "AC50": "25.1 µM [falling, single point]"},
      {"smiles": "O=C(c1ccco1)N1CCN(C(=O)c2cc3c(s2)-c2ccccc2OC3)CC1", "AC50": "12.6 µM [falling, partial curve]"},
      {"smiles": "CC1CCC(C(C)C)C(OC(=O)COC(=O)c2ccc(=O)[nH]c2)C1", "note": "(configuration not stated)", "AC50": "20 µM [falling, single point]"},
      {"smiles": "COc1cc(NC(=O)CSc2ccc(-c3sc(C)nc3C)nn2)cc(OC)c1", "AC50": "15.8 µM [falling, partial curve]"},
      {"smiles": "COc1ccc(N2CCN(C(=O)c3ccc(CS(=O)c4cccc(C)c4)o3)CC2)cc1", "note": "(configuration not stated)", "AC50": "2.51 µM [falling, partial curve]"},
      {"smiles": "COc1ccc(Cl)cc1NC(=O)c1oc2ccc(S(=O)(=O)N3CCCCC3)cc2c1C", "AC50": "7.94 µM [falling, partial curve, poor fit]"},
      {"smiles": "CC(C)CCOCC(=O)Nc1cccc(C(=O)O)c1", "AC50": "10 µM [falling, partial curve]"},
      {"smiles": "Cc1ccc2oc(=O)c(-c3nc(-c4cccs4)no3)cc2c1", "AC50": "25.1 µM [falling, partial curve]"},
      {"smiles": "Cc1nn(CCC(=O)Nc2cccc(C#N)c2)c(C)c1S(=O)(=O)N1CCC(C)CC1", "AC50": "25.1 µM [falling, single point]"},
      {"smiles": "COC(=O)Nc1ccc(S(=O)(=O)N2CCN(c3ccc(F)cc3)CC2)cc1", "AC50": "10 µM [falling, partial curve]"},
      {"smiles": "COC(=O)c1ccccc1NC(=O)Cc1nc(-c2ccc(OC)cc2)no1", "AC50": "12.6 µM [falling, single point]"},
      {"smiles": "Cc1csc2nc(COC(=O)c3ccc(NC(=O)c4ccccc4Br)cc3)cc(=O)n12", "AC50": "7.94 µM [falling, full curve]"},
      {"smiles": "COc1ccc(OC)c(NC(=O)CN(c2ccccc2OC)S(=O)(=O)c2ccc(C)cc2)c1", "AC50": "6.31 µM [falling, partial curve]"},
      {"smiles": "Cc1nc2nc(SCC(=O)NCCc3ccc(Cl)cc3)nn2c(C)c1Cc1c(F)cccc1Cl", "AC50": "25.1 µM [falling, partial curve]"},
      {"smiles": "Cc1ccc(NC(=O)C2CCCN2S(=O)(=O)c2ccc3c(c2)n(C)c(=O)c(=O)n3C)cc1", "note": "(configuration not stated)", "AC50": "0.316 µM [falling, full curve]"},
      {"smiles": "Cc1ccc(-n2ncc3c(N4CCN(Cc5ccccc5)CC4)ncnc32)cc1C", "AC50": "12.6 µM [falling, partial curve]"},
      {"smiles": "Cc1oc(-c2ccccc2F)nc1Cn1c(SCc2cccc(Cl)c2)nc2ccncc21", "AC50": "12.6 µM [falling, partial curve]"},
      {"smiles": "CCOCCc1nn2c(=O)cc(COC(=O)c3ccccc3Br)nc2s1", "AC50": "39.8 µM [falling, single point]"},
      {"smiles": "O=C(Nc1ccc(F)cc1)N1CCN(c2nc3ccccc3s2)CC1", "AC50": "10 µM [falling, partial curve]"},
      {"smiles": "O=C(NCCc1csc(-c2ccc(C(F)(F)F)cc2)n1)c1ccccc1Cl", "AC50": "0.1 µM [falling, full curve, poor fit]"},
      {"smiles": "Cc1ccc(S(=O)(=O)c2c(C)nn(C(C)(C)C)c2OC(=O)c2ccc(Br)o2)cc1", "AC50": "7.94 µM [falling, full curve]"},
      {"smiles": "CCCn1c(=N)c(C(=O)NCc2ccccc2)cc2c(=O)n3cccc(C)c3nc21", "AC50": "3.16 µM [rising, partial curve]"},
      {"smiles": "Oc1c(C(c2cccc(Cl)c2)N2CCOCC2)sc2nc(-c3ccco3)nn12", "note": "(configuration not stated)", "AC50": "5.01 µM [rising, full curve]"},
      {"smiles": "O=C(COc1ccc(F)cc1)NCc1ccc2c(c1)CCN2C(=O)c1ccc(F)cc1", "AC50": "10 µM [falling, partial curve, poor fit]"},
      {"smiles": "Cc1ccc(C)c(N2CCN(c3nc4ccccc4n4nnnc34)CC2)c1", "AC50": "0.501 µM [falling, full curve]"},
      {"smiles": "O=C(Nc1ccc(F)c(Cl)c1)C1CCN(c2ncccn2)CC1", "AC50": "31.6 µM [falling, single point]"},
      {"smiles": "Cc1cccc(OCC(=O)Nc2ccc(S(=O)(=O)N(Cc3ccccc3)c3ccccc3)cc2)c1", "AC50": "0.1 µM [falling, full curve]"},
      {"smiles": "COC(=O)c1ccccc1NC(=O)C1CCCN(C(=O)c2cnn(-c3ccc(F)cc3)c2-n2cccc2)C1", "note": "(configuration not stated)", "AC50": "31.6 µM [falling, single point]"},
      {"smiles": "CCc1nn(CC(=O)NCC(C)c2ccccc2)c(=O)c2cc3c(OC)cccc3n12", "note": "(configuration not stated)", "AC50": "20 µM [falling, single point]"},
      {"smiles": "COCCn1c(=O)[nH]c2cc(C(=O)N3CCN(c4ccc(F)cc4)CC3)ccc2c1=O", "AC50": "3.16 µM [falling, full curve]"},
      {"smiles": "Cc1cc(Br)cc(C)c1OCC(=O)Nc1ccc(S(=O)(=O)Nc2ncccn2)cc1", "AC50": "3.98 µM [rising, single point]"},
      {"smiles": "COc1cccc(-c2csc(N3CCN(C(=O)C4CCCCC4)CC3)n2)c1", "AC50": "31.6 µM [falling, partial curve]"},
      {"smiles": "CCOc1ccccc1Nc1nnc(SCC(=O)N2CCCC2)s1", "AC50": "2 µM [falling, partial curve]"},
      {"smiles": "Clc1ccc(-c2nnn3c2nc(N2CCCCC2)c2ccccc23)cc1", "AC50": "0.1 µM [falling, full curve]"},
      {"smiles": "O=S(=O)(c1ccc2c(c1)C(=NO)c1cc(S(=O)(=O)N3CCCCC3)ccc1-2)N1CCCCC1", "AC50": "7.94 µM [falling, single point] [measured here: IkB-luc green channel]"},
      {"smiles": "CCOc1ccc(NC(=O)c2cnn3c2NC(c2ccccc2)=CC3c2cccc(OC)c2OC)cc1", "note": "(configuration not stated)", "AC50": "25.1 µM [falling, single point]"},
      {"smiles": "Cc1ccccc1NC(=O)c1cc2ccccc2o1", "AC50": "5.01 µM [falling, partial curve]"},
      {"smiles": "COc1ccc(CCNC(=O)c2cc(-c3ccccc3)on2)cc1OC", "AC50": "15.8 µM [falling, partial curve]"},
      {"smiles": "COc1ccc(CCNC(=O)Cc2c(C)c3ccc(O)c(C)c3oc2=O)cc1OC", "AC50": "25.1 µM [falling, partial curve]"},
      {"smiles": "CCOc1ccc(C2=C(C(C)=O)Sc3nnc(C)n3N2C(C)=O)cc1", "AC50": "31.6 µM [rising, single point] [measured here: IkB-luc green channel]"}
    ]}
  ]
}
